No constants are given. Whether binding was seen depends on the method and setting. Binding seen in cells or lysates may run through a third protein. Some results given as binding are weak or reduced against the parent protein; the word gives no strength. Where a sequence is shown, tags or fusion partners need not be part of it.
Molecular target: Rpn11 with a protein A affinity purification tag (yeast) (UniProt P43588)
Assay: pull-down; proteasomes purified from lysates of yeast grown in YPD by the protein A tag on Rpn11 with IgG affinity resin; eluate on SDS-PAGE, Coomassie brilliant blue

By UniProt entry, the sequences of proteins in these tests, tags left out.
UniProt P43588: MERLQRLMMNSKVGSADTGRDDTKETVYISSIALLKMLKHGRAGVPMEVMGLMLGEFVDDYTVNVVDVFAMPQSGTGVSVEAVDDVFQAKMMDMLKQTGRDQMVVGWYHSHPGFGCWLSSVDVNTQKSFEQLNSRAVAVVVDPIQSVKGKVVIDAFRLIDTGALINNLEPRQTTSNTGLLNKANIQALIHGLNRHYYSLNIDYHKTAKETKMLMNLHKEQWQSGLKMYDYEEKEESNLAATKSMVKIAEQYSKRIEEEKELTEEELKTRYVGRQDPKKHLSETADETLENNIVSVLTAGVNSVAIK

B1: β5 (Pre2) subunit of the proteasome core particle with a C-terminal GFP tag (protein, UniProt P30656 76-287)
chain: TTTLAFRFQGGIIVAVDSRATAGNWVASQTVKKVIEINPFLLGTMAGGAADCQFWETWLGSQCRLHELREKERISVAAASKILSNLVYQYKGAGLSMGTMICGYTRKEGPTIYYVDSDGTRLKGDIFCVGSGQTFAYGVLDSNYKWDLSVEDALYLGKRSILAAAHRDAYSGGSVNLYHVTEDGWIYHGNHDVGELFWKVKEEEGSFNNVIG
  binding: binds
